The campaign covered roughly 53,000 sequences. About 3,700 (7%) were called active.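 Rule for the calls: active = gene knockdowns whose robust z-score for IL-1 alpha signal is at least 2 or at most -2, so actives lie on both sides; inactive = the rest.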 The list shows a part of the results.
Test: Components of the Cytosolic LPS Sensing Pathway: Gene Identification via Genome-wide siRNA Screen;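 note: robust z of the log signal after scaling to non-targeting control siRNA wells of the plate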
Conditions: RAW264.7 macrophages, IL-1a HTRF, actives lie on both sides, screened at 100 nM (by protocol), cells primed 5 h with Pam3CSK4 first
In short: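 Three distinct siRNAs per gene were tested singly at 100 nM in RAW264.7 macrophages. Following Pam3CSK4 priming and 24 hour LipidA transfection, IL-1a secretion was read by HTRF.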

Sequence	z-score
GGCAGAGAUGGAGUUGGUCTT against Azin2	inactive: -0.0183
GGAAGUGCCCAUGAAUCCUTT against Irf6	inactive: -0.433
GGAAAUAUAGUAAAGCAGATT against Cdca7l	inactive: -1.13
CCAGAUGACAAUGAGUCAGTT against Ss18	inactive: -0.197
GGAAUGGUUUUAUUUUUGGTT against Noa1	inactive: -0.0245
GGAAAUUUACUAGGAGAACTT against Carf	inactive: -1.15
GGGUGGUACUAAACUCCAUTT against Sirpa	inactive: -0.861
GGAUUCGGAAUACUACGAUTT against Abo	inactive: 1.62
GGCAAAUGAGAAACAGCAATT against Cxcl16	active: -2.23
GGCUGAGACGGAAUCUUUATT against Bfsp2	inactive: -1.17
GGAGUCGUUUAAGCUUUAATT against Zfhx3	inactive: 0.963
GGGUACUGCUUCAACCAACTT against P2rx3	inactive: 0.308
GGACACAAAUGACAUCAACTT against Sirpa	active: 2.13
GGACUUCGUGUUCAUACAUTT against Tmie	inactive: 0.548
GGAGAGGGAUCAUAGAAAATT against Hey2	inactive: 0.0862
GGAAUGUGGUUUCCUGUUATT against Fscn3	inactive: 0.502
AACUUUCCUGCUCUAACACTT against Olfr930	inactive: -1.27
UUCCAGAAAAGAAGUGCACTT against Defb41	inactive: 0.356
GGUCUUGGACCUCAGGAAGTT against 3110040N11Rik	inactive: 0.644
AAUGCAAACAAUGCAAAUGTT against Mt2	inactive: -0.174
GGAAGUCGCCUACAUCCUUTT against Lenep	inactive: 0.643
CGCAUUAGAGAGAUGAACATT against Acap2	inactive: -0.566

Sequence	z-score
GGCCAAAAGGUUGAGCAGUTT against Nsun2	inactive: 0.311
CCUUCGUAGCCUGUAUCAUTT against Myadm	inactive: -0.173
CCCAACUUUGGGCUUGUCUTT against Cluap1	inactive: 0.37
GCUCAUGUCCUAUAUUCAATT against Scfd2	inactive: 0.244
GGGCAUUGAGACUUUGCUGTT against Sit1	inactive: 0.692
CCUGGUCACAGGCAUUAAATT against Lkaaear1	inactive: 0.248
GGACUUUGUGCAUUUGUUATT against Ly75	inactive: 0.693
GGGCAUGAGAAAUCCACAGTT against Rhox9	inactive: -1.23
GGCUUCGGAUAUGGCUACATT against Krtap19-4	inactive: 0.0557
GGCAUCCCACUGAAGAACATT against Cmas	inactive: -0.0744
GGCGAAGCUUGAAGAACAUTT against Ipo5	inactive: 0.273
GGAGGAGGUUCAUAUUAAATT against A330041J22Rik	inactive: 0.0777
GGAGAACAUCACUGAUCCATT against Grin1	inactive: 0.125
GGAUAACAAAAGUAUCCAGTT against Ikbke	inactive: 0.793
GCAACAAGUUUGAUACCGATT against Chic1	inactive: 0.0162
GGGUUUCUGACCCUUGGUUTT against Vmn1r220	inactive: -1.42
GGAUGAAAUUAACUCUGAATT against Parp1	inactive: -0.533
CGUAGGAGAACAAACAUCCTT against Tmc7	inactive: -0.158
GGAAGUCCACAAAUGAAGGTT against Ric1	inactive: 1.77
GGGAAACCAUCGAUUUGAATT against Bmp5	inactive: -1.35
GGAAGUUCCACCAUACCUCTT against Cypt4	active: -2.5
GGUAAAAUAUGGUCUCUUCTT against Clrn3	inactive: -0.282

Sequence	z-score
GGAGAUCCUAAUCAUGUCATT against Kcmf1	inactive: 0.612
GGGAGAGGAAGAAAAUAAATT against Ccz1	inactive: 0.476
GGAAUACCAUGUUACAAUUTT against Reln	inactive: 0.816
GGCAUUCAGGAAGUUACUGTT against Krt75	inactive: -1.63
GCCAAUACACGUCUACUGATT against Gm1553	inactive: -0.0632
GGUCAAUUGUCCAUAUGACTT against Tox3	active: -2.24
GCAUAUACUCCAAAAGUCATT against Cldn8	inactive: -0.634
GGUACACCCAGACAAGAACTT against 4930503B20Rik	inactive: -0.397
GGAGAAAUAGAUUCAGUGATT against Cep170	inactive: -0.839
GGAAUGUUCCGAUUAUUUATT against Slc9b1	inactive: 1.03
GGGAGACCUGCUACUAUUGTT against Gtf3c2	active: 2.58
GCUGGCUGUUUCACUACAGTT against Tdh	active: 3.19
GGGACUUACAGAUUACAGUTT against Izumo1	inactive: 0.416
GGGAGGAACAAGUUGGACCTT against Npl	inactive: -0.841
GGUCUUACGUAAACCUGCCTT against Olfr959	inactive: -1.54
CCACUGGCUACCACAUGUUTT against Cyb5d2	inactive: -0.0983
GGGAGUCUGUAGAAGGUUCTT against Samd14	inactive: 0.577
GCUAAGUGGAGUUUAUGCUTT against Agpat5	inactive: 0.0451
GCAUAAGAAGAAACACCUUTT against Usp17lf	inactive: 1.42
GGCUUUAAAGGGAAUGCCCTT against Uba3	inactive: -0.886
GGUUAUUCUGGUACAGGUUTT against Fndc3a	inactive: 0.191
CGGUGGUCACUGUGAAAUGTT against Nr1h5	inactive: 0.0152

Sequence	z-score
GCCUUUUAGGACAGACUCUTT against AU040320	inactive: -0.75
GGAUCCAAGCAUUAUAGUGTT against Smg5	inactive: 0.908
CCAUAAAUGAGUCUUCAUUTT against Bnip5	inactive: -0.0535
CCACUUUUAGCUAGAAGGATT against Gdf2	inactive: 0.0775
GGUGUUCCAUAUUCUGGACTT against Pvalb	inactive: 0.886
GGGCUCCUGGUUUAGUAAUTT against Zfp59	inactive: 1.04
GCAGCCAUACAGCUUAUAUTT against Cyb561d2	inactive: 0.382
GGCAGAAACGUGGACUAAATT against Mmp12	inactive: -1.29
GGUCCUGAAGAACCUGUACTT against Myrip	inactive: -0.0103
GGACAUCAGUUAUCACGCATT against Sh3rf2	inactive: -0.404
UUCAAAUAAACUCUCUGCUTT against Krtap31-2	inactive: 0.802
CCUCACUGUGGUAACAUUATT against Olfr452	inactive: 1.84
GGAAUUCACAGAAAUAAUGTT against Hmgcs2	inactive: 0.101
GUAUCGUUUGAGCAGAUCCTT against Cib1	inactive: -0.669
GGAUAUCCGUGAGAUUUCATT against Timm9	active: 3.7
CCCUAGUGAUAAGGAAUGCTT against Cxcl9	inactive: 0.228
CCAAAUCGUCGCCAUUAAGTT against Cdk7	inactive: -0.445
GGUAUUAGCAAUUUUCUGGTT against Olfr619	inactive: -0.681
CUCGUUAAUCCUGUGAUAUTT against Olfr740	inactive: 1.74
GCCAACCUCUGUGUGUAUUTT against Olfr1263	inactive: 0.799
GGUUCACCUACCCAACAAUTT against Mrgpra4	inactive: -1.89
GCAGGUUUACCAGUUUUUCTT against Prickle3	inactive: 1.88

Sequence	z-score
GCAAGAGAAAUCCACGACUTT against Ncoa1	inactive: -0.0778
CCUGAUAGAAAAUCUCGACTT against Pld1	inactive: -0.537
GGAUCUCUAUGCUAACAACTT against Acta2	inactive: 1.83
GGAAGAGGAAGAAAAAAAGTT against Iqcf4	inactive: -0.411
CCUGUAACCUUGCUUAAUGTT against Hoxc6	inactive: 0.0208
GCACCUAGAUUGAUUGCAGTT against Olfr1186	inactive: -1.79
GGAAGGUAUGGUACGAUGUTT against Rock1	inactive: -0.455
GGAAGGCUAUACACACCUUTT against Crisp1	inactive: 1.13
GCUGCUCAAACAUAAUGAATT against Osbpl2	inactive: -0.419
CCUUGGACCCGAUGUUCUUTT against Slc22a12	inactive: 0.548
GGAGAAAUUCAAACAAGUATT against 4930503B20Rik	inactive: 0.275
GGCUCAAGUUUGCCAGGAATT against Kcnq2	inactive: -0.473
GCUACAAACAAAAGUGGCCTT against Sass6	inactive: -0.717
CCUGUCUCCAAUUUUCCUGTT against Olfr1254	inactive: -1.13
GGUGUGUUUUGUAUUGAUUTT against Olfr843	inactive: 0.482
CCUGUGUAUUCCUAAAUUGTT against Wdr41	inactive: -0.718
GGCCGUACCUUUAACUGGATT against Tex101	inactive: 0.261
GGUUGGAACAAAAUCUUUATT against Nipa2	inactive: 0.358
GGAUGACUACAAAUGCAAATT against E230015B07Rik	inactive: -0.155

Reprinted from the listing (6 entries):
Sequence	z-score
GGAGAAAUAGAUUCAGUGATT against Cep170	inactive: -0.839
GGAAUGUUCCGAUUAUUUATT against Slc9b1	inactive: 1.03
GGGAGACCUGCUACUAUUGTT against Gtf3c2	active: 2.58
GCUGGCUGUUUCACUACAGTT against Tdh	active: 3.19
GGGACUUACAGAUUACAGUTT against Izumo1	inactive: 0.416
GGGAGGAACAAGUUGGACCTT against Npl	inactive: -0.841

— PubChem BioAssay AID1508600 (Functional Genomics Laboratory (NCATS/FGL), 2020)
